In doi:10.1101/2020.04.23.058347:
No constants are given. Whether binding was seen depends on the method and setting. In cells and extracts the contact can be indirect. Some entries that bind do so weakly or less than the wild type.

The chains behind the UniProt entries cited, without tags or fusion partners. Where a name states a change or a piece, a line headed by the entry shows the natural chain unless it says otherwise.
UniProt P46529, whole entry: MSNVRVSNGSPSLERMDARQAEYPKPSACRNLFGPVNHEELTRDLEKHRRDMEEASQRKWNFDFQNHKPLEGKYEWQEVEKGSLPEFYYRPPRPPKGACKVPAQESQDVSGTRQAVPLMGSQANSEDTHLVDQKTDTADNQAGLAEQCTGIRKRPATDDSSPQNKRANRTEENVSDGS
UniProt Q00534, whole entry: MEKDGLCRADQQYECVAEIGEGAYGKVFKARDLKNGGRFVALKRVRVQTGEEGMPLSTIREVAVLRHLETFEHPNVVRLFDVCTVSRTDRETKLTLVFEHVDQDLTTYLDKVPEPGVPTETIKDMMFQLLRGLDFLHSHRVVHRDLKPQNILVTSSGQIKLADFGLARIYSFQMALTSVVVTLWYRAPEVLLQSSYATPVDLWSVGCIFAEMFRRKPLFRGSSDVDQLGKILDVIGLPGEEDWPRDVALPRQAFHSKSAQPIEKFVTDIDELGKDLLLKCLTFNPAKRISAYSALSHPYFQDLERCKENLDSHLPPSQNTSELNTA

Biological target: p27^Kip1 (endogenous, mink Mv1Lu cells) (mink (endogenous in Mv1Lu)) (UniProt P46529)
Experiment: co-IP

Substance | binding
HA-cdk6^WT (human) (from UniProt Q00534 1-326) (enzyme) | binds
cdk6^D163N/R31C (human) (from UniProt Q00534 1-326) (enzyme) | binds
